The name of at least one read-out is uncertain.
Assay: Room temperature equilibrium solubility in aqueous suspensions
Type: physicochemical
Conditions: different aqueous systems tested

Compound: O=C(O)[C@H]1C[C@@H](N2CCc3oc(-c4ccc(OCc5ccc(Cl)cc5)cc4)nc3C2)C1 [Form A, (1s,3s)-3-(2-(4-((4-chlorobenzyl)oxy)phenyl)-6,7-dihydrooxazolo[4,5-c]pyridin-5(4H)-yl)cyclobutane-1-carboxylic acid]
- enhanced solubility as compared to Form B: 3-6 times

Source: patent US11535632B2, “Solid forms of an S1P-receptor modulator” (ESCAPE Bio, Inc., priority 2019, dated 2022)
